Results reported in PubChem BioAssay AID1259415 (National Center for Advancing Translational Sciences (NCATS), 2018).
Screen size: about 410,000 compounds; about 18,000 (4.4%) were called active. The inconclusive results got no clear call from the source; some entries with a clear call stand among them for comparison. Rule as the data show it: active = activity change below about -60%; inconclusive = no clear call, values can overlap the other calls; inactive = above about -39%.
% is scaled to controls: 0 for no effect and ±100 for the full control effect.

Experiment: qHTS Assay for inhibitors of the human cytomegalovirus (HCMV)
Details: HFF cells, HCMV-luciferase reporter, 72 h; at 57.5 µM; active compounds read low
In short: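 HFF cells seeded 16 h at 37C, treated with compounds, infected with luciferase-reporter HCMV at MOI 1 PFU/cell; luciferase read at 72 h post infection, normalized to buffer-only and Salinomycin controls.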
For S=C(NCc1ccc2c(c1)OCO2)NC1CCN(Cc2ccccc2)CC1, the activity change, negative = inhibition was active: -77.9%. With COc1ccc(S(=O)(=O)NN(C)C)cc1N(C)S(=O)(=O)c1ccc(Cl)cc1 the activity change, negative = inhibition was active: -63.8%. For CC1CN(S(=O)(=O)c2csc(C(=O)Nc3ccccc3)c2)CC(C)O1 (stereo not given), the activity change, negative = inhibition was active: -60.4%. In the case of COCCNC(=O)C(c1ccc(C)o1)N(C(=O)Cn1nnc2ccccc21)c1ccccc1 (stereo not given), the activity change, negative = inhibition is reported as inconclusive: -41.4%. For CC(C)(C)N1[C@@H](CC(=O)O)c2cc(C(F)(F)F)ccc2S1(=O)=O, the activity change, negative = inhibition was inactive: 4.14%. In the case of Cc1cc(-c2ccccc2)nc2cc(C(=O)N(Cc3ccccc3)Cc3ccccc3)nn12, the activity change, negative = inhibition is reported as inconclusive: -46.1%. In the case of Cc1ccc(/C=C/c2ccc(N(C)C)cc2)[n+](C)c1, the activity change, negative = inhibition is reported as active: -98.3%. For CCOC(=O)c1sc(NC(=O)Nc2ccc(F)cc2)nc1C, the activity change, negative = inhibition was inactive: 131%. For O=C(N/N=C/CCc1ccccc1)c1ccc(CN2c3cccc4cccc(c34)S2(=O)=O)cc1, the activity change, negative = inhibition was inconclusive: -57.2%. With Cc1ccc(S(=O)(=O)N2CCC[C@H]2C(=O)OC(C)C(=O)Nc2ncc(Cl)cc2Cl)cc1 (stereo not given in full) the activity change, negative = inhibition was inactive: 28.6%. With Cn1cc(CN2CC3C[C@@H]4CC2C[C@H](C3)C4)c(-c2ccc3c(c2)OCCO3)n1 the activity change, negative = inhibition was inactive: 33.2%. For COC(=O)C1=C(C)N(Cc2ccccc2)C(=NCc2cccc(C(F)(F)F)c2)N[C@H]1c1cccc(F)c1, the activity change, negative = inhibition was active: -98.4%. With CCC(C(=O)OCC(=O)Nc1ccc(Cl)c(S(=O)(=O)N(C)C)c1)c1ccccc1 (stereo not given) the activity change, negative = inhibition was inconclusive: -55.9%. In the case of COc1ccc2c(C)c(CC(=O)NCc3ccc(C)cc3)c(=O)oc2c1OC, the activity change, negative = inhibition is reported as inactive: 17%. For CC(C)OCCCNC(=O)c1cc2c(-c3ccc(Cl)cc3)nn(C)c2s1, the activity change, negative = inhibition was inactive: 157%. In the case of CCOC(=O)c1cc(C)n(CCc2cnc[nH]2)c1C, the activity change, negative = inhibition is reported as inactive: 12%. In the case of COc1ccc(C(=O)/C=C/C(=O)N(CC(=O)NC2CCCCC2)Cc2cccs2)c(O)c1, the activity change, negative = inhibition is reported as active: -99.7%. With Cn1nccc1C(=O)N1CCCC(C(=O)c2cccc3ccccc23)C1 (stereo not given) the activity change, negative = inhibition was inconclusive: -40.3%. With O=C(NCc1ccncc1)c1cc(C(=O)C2CC2)c[nH]1 the activity change, negative = inhibition was inconclusive: -40.7%. For COc1ccc(NC(=O)CCNC(=O)c2ccccc2Cl)cc1OC, the activity change, negative = inhibition was inconclusive: -51.4%. For Cc1ccc(NC(=O)c2c(C)oc3ccc(O)c(CN4CCCCCC4)c23)c(C)c1, the activity change, negative = inhibition was active: -64.7%. For CCOc1ccc(NCC(=O)c2ccc(C)cc2)cc1, the activity change, negative = inhibition was inconclusive: -59.5%. With O=C(Nc1nc2n(n1)C(c1ccccc1)C=C(c1ccccc1)N2)c1ccc(Cl)c([N+](=O)[O-])c1 (stereo not given) the activity change, negative = inhibition was inconclusive: -44.3%. For COc1ccc(S(=O)(=O)Nc2cccc3ccc(O)cc23)cc1, the activity change, negative = inhibition was inconclusive: -42.9%. In the case of COC(=O)[C@@H](c1ccccc1)C1CCCCN1 (stereo not given in full), the activity change, negative = inhibition is reported as inconclusive: -52.1%. In the case of COc1cccc(-c2ccc3c(N)c(C(=O)c4ccc(Cl)cc4)sc3n2)c1, the activity change, negative = inhibition is reported as inactive: -38.8%. For O=C1OCCC1(c1ccccc1)c1ccccc1, the activity change, negative = inhibition was inactive: -14.9%. With Cc1ccc(S(=O)(=O)N(C)C)cc1NC(=O)C(C)N(C)CCOc1ccc(Cl)cc1 (stereo not given) the activity change, negative = inhibition was active: -78.5%. For CC(=O)c1ccc(S(=O)(=O)NCc2ccc(C(=O)N(C)CC(=O)Nc3cccc(F)c3)cc2)cc1, the activity change, negative = inhibition was inactive: -8.8%. For Cc1ccc(S(=O)(=O)N2C3CC(c4ccccc4)N(S(=O)(=O)c4cccc(Cl)c4)CC3C(=O)C[C@H]2c2ccccc2)cc1 (stereo not given in full), the activity change, negative = inhibition was inconclusive: -52.6%. With O=C(CSc1n[nH]c(=O)[nH]c1=O)Nc1ccc(SC(F)F)cc1 the activity change, negative = inhibition was inactive: -21.2%. For CC(=NNC(=S)N1CC2CCC(CC2)C1)c1ccccn1, the activity change, negative = inhibition was active: -99.6%. With O=C(/C=C/c1ccc(OCCCF)cc1)Nc1ccnc(-c2ccncc2)n1 the activity change, negative = inhibition was inconclusive: -54.1%. In the case of O=C(Nc1ccc(C(F)(F)F)cc1)C1CCCN(c2cnccn2)C1 (stereo not given), the activity change, negative = inhibition is reported as inactive: -18.5%. In the case of CC1CN(C(=O)Nc2ccc(C(=O)NCc3cccc(F)c3)cc2)c2ccccc2S1 (stereo not given), the activity change, negative = inhibition is reported as inactive: 6.13%. With Cc1ccc(-c2c(C(=O)N/N=C/c3c[nH]c4ccccc34)nnn2-c2nonc2N)cc1 the activity change, negative = inhibition was inactive: -13.5%. In the case of S=C(NCCc1ccccc1)N/N=C/c1ccc(Cl)cc1, the activity change, negative = inhibition is reported as inconclusive: -54.3%. For CO/N=C(\C)C(Cc1ccc(Cl)nc1)Cc1ccc(Cl)nc1, the activity change, negative = inhibition was inconclusive: -53.8%. In the case of Cc1nn(Cc2ccccc2)c(C)c1NC(=O)c1cc(-c2cccs2)on1, the activity change, negative = inhibition is reported as inconclusive: -55.2%. For CCOC(=O)C1=C(C)NC(C)=C(C(=O)OCC)C1C(=O)OCC(=O)NCc1ccccc1OC, the activity change, negative = inhibition was inactive: -22.9%. For CC1(C)Cc2c(C#N)c(N3CCOCC3)nc(-c3ccccc3)c2CO1, the activity change, negative = inhibition was inactive: 5.57%. With CCn1c(CN2c3ccccc3Sc3ccccc32)n[nH]c1=S the activity change, negative = inhibition was active: -62%. In the case of CCN(CC)C(=S)Sc1c(-c2ccccc2)c2cc(Cl)ccc2[nH]c1=O, the activity change, negative = inhibition is reported as inactive: 0.446%. For CCOC(=O)N1CCN(c2c(NCC3CCCO3)c(=O)c2=O)CC1 (stereo not given), the activity change, negative = inhibition was inconclusive: -55.9%. With COc1ccc2cc(C(=O)C3CCCN(Cc4ccccn4)C3)ccc2c1 (stereo not given) the activity change, negative = inhibition was inconclusive: -43.1%. In the case of COc1ccc(CNC(=O)c2ccc3c(c2)nc2n3CCC(C)C2)c(OC)c1 (stereo not given), the activity change, negative = inhibition is reported as inconclusive: -40.3%. In the case of Cn1c(=O)c2cn3c(c2n(C)c1=O)C(c1ccccc1)CC(c1ccccc1)=N3 (stereo not given), the activity change, negative = inhibition is reported as inactive: 9.43%. In the case of O/N=C/c1ccc2cccc(OCc3ccccc3)c2n1, the activity change, negative = inhibition is reported as inactive: -30.9%. In the case of CCOc1ccccc1NC(=O)Cn1nnc2sc(-c3ccccc3)cc2c1=O, the activity change, negative = inhibition is reported as inactive: -9.68%. With O=C(C[n+]1ccn(-c2ccccc2)c1)c1ccc([N+](=O)[O-])cc1 the activity change, negative = inhibition was active: -63.5%. In the case of CCOC(=O)C(C)Oc1cccc2c(=O)n(CC(=O)NCc3ccc(F)cc3)ccc12 (stereo not given), the activity change, negative = inhibition is reported as active: -64.7%. For COCCCNC(=O)CCCCn1c(=O)c2ccccc2n(CC(=O)Nc2ccc(C)cc2C)c1=O, the activity change, negative = inhibition was inactive: -5.16%. In the case of Cn1cc(C(=O)c2ccc(Cl)cc2Cl)cc1C(=O)N/N=C(\N)COc1ccc(Cl)cc1Cl, the activity change, negative = inhibition is reported as inconclusive: -50%. With Cc1ccc(NC(=O)CSc2nc3c(oc4ccccc43)c(=O)n2-c2ccc(F)cc2)c(C)c1 the activity change, negative = inhibition was inactive: 5.83%. For COP(=O)(OC)Oc1ccc(C(O)C(Cl)(Cl)Cl)cc1 (stereo not given), the activity change, negative = inhibition was inconclusive: -56.3%. In the case of CC(=O)c1cn(Cc2ccccc2F)c2ccccc12, the activity change, negative = inhibition is reported as active: -79.2%. With O=C(Cc1cccs1)NCc1cccc(CNC(=O)Cc2cccs2)c1 the activity change, negative = inhibition was inactive: -5.25%. With CC(CN(C)C)CN1c2ccccc2CCc2ccccc21 (stereo not given) the activity change, negative = inhibition was inconclusive: -58.6%. For COc1ccc(C(=O)ON=C2C=C(C)C(=O)C(C)=C2)cc1, the activity change, negative = inhibition was active: -76.1%. With COc1ccc(N2C(N)=C(C#N)C(c3ccsc3)C3=C2CCCC3=O)c(OC)c1 (stereo not given) the activity change, negative = inhibition was inconclusive: -51.7%. For CCOC(=O)c1c(NC(=O)CS(=O)(=O)c2ccc(C)cc2)sc2c1CCCCC2, the activity change, negative = inhibition was inconclusive: 0%. In the case of COc1ccc(-c2cn3nc(N4CCC(C(=O)NCc5ccccc5F)CC4)sc3n2)cc1, the activity change, negative = inhibition is reported as inconclusive: 0%. For Cc1ccc(S(=O)(=O)N2CCCc3cc(NS(=O)(=O)c4ccc(F)c(C)c4)ccc32)cc1, the activity change, negative = inhibition was active: -60.5%. With CN1C(=O)C(=Cc2ccc(N3CCCCC3)o2)C(=O)N(C)C1=S the activity change, negative = inhibition was inconclusive: -45.3%. In the case of CC1CCN(c2nc3ccc(C(=O)N4CCN(Cc5ccccc5)CC4)cc3s2)CC1, the activity change, negative = inhibition is reported as inconclusive: -43.1%. In the case of Cc1onc(-c2ccccc2)c1C(=O)OCC(=O)Nc1cccc(Cl)c1, the activity change, negative = inhibition is reported as inconclusive: -55%. With COC(=O)c1ccc(OC(=O)C2CC(=O)N(c3cccc(C)c3)C2)cc1 (stereo not given) the activity change, negative = inhibition was inactive: 0.659%. With S=C(NCc1ccco1)Nc1ccc(Oc2ccccc2)cc1 the activity change, negative = inhibition was inactive: -34.5%. With Brc1cc(Br)c2ncnc(N3CCCCC3)c2c1 the activity change, negative = inhibition was active: -104%. With COc1ccc(C(=O)N2CCN(Cc3ccc4c(c3)OCO4)CC2)cc1[N+](=O)[O-] the activity change, negative = inhibition was active: -82.6%. With COc1ccc(CC2C(=O)NC(C)C(=O)N(C)C3C(=O)N(C)C(Cc4ccc(O)c(c4)Oc4ccc(cc4)C3O)C(=O)NC(C)C(=O)NC(C)C(=O)N2C)cc1 (stereo not given) the activity change, negative = inhibition was active: -97.7%. With CC(Oc1ccc(F)cc1)C(=O)NCC1(N(C)C)CCCCC1 (stereo not given) the activity change, negative = inhibition was inactive: -19.3%. In the case of Cc1c2cnn(CC(=O)NCc3ccccn3)c(=O)c2c(C)n1Cc1ccccc1, the activity change, negative = inhibition is reported as inconclusive: -43.6%. For Cc1ccc(/C=N/NC(=O)c2nnn(-c3nonc3N)c2-c2cccs2)cc1, the activity change, negative = inhibition was inconclusive: -59.6%. With O=C1CCC[C@H]2[C@@H](Cc3ccccc3)[C@@H](NS(=O)(=O)c3ccc(C(F)(F)F)cc3)CC[C@]23CCCN13 the activity change, negative = inhibition was inconclusive: -49.2%. For Cc1ccsc1C(=O)NN=C1CCCCCC1, the activity change, negative = inhibition was active: -98.9%. With CC(C)(C)S(=O)(=O)N1C[C@H]2CC/C=C\C/C(c3ccccc3)=C\2[C@@H]1CCO the activity change, negative = inhibition was inconclusive: -54.6%. In the case of CC(=NNc1ccc2ccccc2n1)c1ccccn1, the activity change, negative = inhibition is reported as active: -101%. For CCOC(=O)c1sc(NC(=O)CCN2CCN(C)CC2)c(C(=O)OCC)c1C, the activity change, negative = inhibition was inconclusive: -50.7%. With Cc1ccc(C(=O)N2CCN(S(=O)(=O)c3ccccc3[N+](=O)[O-])CC2)o1 the activity change, negative = inhibition was inconclusive: -43.5%. With O=C(CSCCOc1ccccc1)NCc1ccncc1 the activity change, negative = inhibition was inactive: -11.8%. In the case of O=C(CSc1ccsc1[N+](=O)[O-])N1CCN(c2ccccn2)CC1, the activity change, negative = inhibition is reported as active: -67.8%. With Cc1ccc(Cl)cc1N1CCN(C(=O)c2ccc3c(c2)CCN3S(C)(=O)=O)CC1 the activity change, negative = inhibition was active: -65.7%. For CN(C(=O)c1ccc(F)cc1)c1ccc(OCC(=O)Nc2ccccc2C(=O)O)cc1, the activity change, negative = inhibition was inconclusive: -52.8%. In the case of COCCNC(=O)C(c1ccc(C)o1)N(C(=O)c1snc(C(N)=O)c1N)c1cc(C)cc(C)c1 (stereo not given), the activity change, negative = inhibition is reported as active: -78.5%.
